Results deposited as PubChem BioAssay AID1259254 (NCATS, 2017).
The whole screen tested about 59,000 reagents; shown is a random part of them. Over the whole deposit, about 1,550 (2.6%) were called active. 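G2 share is only a proxy for re-replication; each gene was hit by three separate siRNAs, and active genes were retested.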 Reagents against one gene are numbered here. Further read-outs or replicates are left out here. Not stated in the record: the amount of reagent.

Aim: 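Finding genes that stop cells copying their DNA twice in one cycle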 (primary screen)
Cell system: human HCT116 colorectal cancer cells
Reagent: single siRNA against human genes
Time to read-out: 3 days
Measured: 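Imaged Hoechst DNA stain sorts each cell into a cycle phase by DNA amount; per plate, G2 fraction set to 0% for non-targeting and 100% for GMNN siRNA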
Direction: G2 robust z-score: higher = more G2 cells, more excess DNA replication
Call rule: 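Active siRNAs have a G2 robust z of 5 or more median absolute deviations over the median, which in these data means about 38% or higher of GMNN control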

G2 robust z-score, by target gene and reagent
ATXN1: #1 0.434 inactive; #2 1.45 inactive; #3 0.127 inactive
POGK: #1 0.323 inactive; #2 2.33 inactive; #3 -0.413 inactive
FBXO22: #1 2.73 inactive; #2 3.05 inactive; #3 -0.16 inactive
CCDC57: #1 -0.562 inactive; #2 2.1 inactive; #3 -1.19 inactive
DPCD: #1 1.95 inactive; #2 1.54 inactive; #3 3.21 inactive
IGSF6: #1 0.12 inactive; #2 0.0996 inactive; #3 0 inactive
SLC39A2: #1 0.593 inactive; #2 0.394 inactive; #3 5.87 active
LOC730909 (retired record): #1 -0.209 inactive; #2 1.65 inactive; #3 2.39 inactive
SSR3: #1 -0.734 inactive; #2 2.32 inactive; #3 2.1 inactive
PHF11: #1 -0.893 inactive; #2 4.7 inactive; #3 0.373 inactive
